Some of the results follow. Single values are uncertain, as repeats are few or missing.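 Imaging used 1,536-well plates; nuclei positive for cleaved PARP by antibody were divided by total DNA-stained nuclei to yield the apoptosis fraction. Doses for screening kept most cells viable, and cell lines differ markedly in resting and induced cleaved-PARP levels.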
Tests used:
Assay in all cases: cleaved PARP positive nuclei fraction relative to DMSO control; melanoma cells; higher = more apoptosis
Details in all cases: library dose: low library concentration; 72 h
MZ2-MEL = tested on: MZ2-MEL
MeWo = tested on: MeWo
RPMI7951 = tested on: RPMI7951
RVH-421 = tested on: RVH-421
SkMel28 = tested on: SkMel28
SkMel2 = tested on: SkMel2
SkMel30 = tested on: SkMel30
UACC62 = tested on: UACC62
SkMel5 = tested on: SkMel5
UACC257 = tested on: UACC257

SMILES	cleaved PARP positive nuclei fraction (MZ2-MEL) [%]	cleaved PARP positive nuclei fraction (MeWo) [%]	cleaved PARP positive nuclei fraction (RPMI7951) [%]	cleaved PARP positive nuclei fraction (RVH-421) [%]	cleaved PARP positive nuclei fraction (SkMel28) [%]	cleaved PARP positive nuclei fraction (SkMel2) [%]	cleaved PARP positive nuclei fraction (SkMel30) [%]	cleaved PARP positive nuclei fraction (UACC62) [%]	cleaved PARP positive nuclei fraction (SkMel5) [%]	cleaved PARP positive nuclei fraction (UACC257) [%]
Cn1cnc2c(F)c(Nc3ccc(Br)cc3Cl)c(C(=O)NOCCO)cc21 [selumetinib] + NC(=O)c1ccc(N(C(N)=O)c2c(F)cccc2F)nc1-c1ccc(F)cc1F [VX702] (first compound 0.015 µM, partner dose 0.4 µM)	84.2	133	109	167	244	165	214	182	–	–
C[C@]1(O)C[C@@H](c2nc(-c3ccc4ccc(-c5ccccc5)nc4c3)c3c(N)nccn32)C1 + Cn1c(=O)n(-c2ccc(C(C)(C)C#N)cc2)c2c3cc(-c4cnc5ccccc5c4)ccc3ncc21 [NVP-BEZ235] (first compound 0.4 µM, partner dose 0.004 µM)	69.2	159	76.6	46.3	107	135	123	108	–	–
CS(=O)(=O)c1ccc(C(=O)Nc2ccc(Cl)c(-c3ccccn3)c2)c(Cl)c1 [vismodegib] + CNC(=O)c1cc(Oc2ccc(NC(=O)Nc3ccc(Cl)c(C(F)(F)F)c3)cc2)ccn1 [sorafenib] (first compound 1 µM, partner dose 0.4 µM)	109	176	260	49.9	155	147	31	64.8	–	–
CS(=O)(=O)c1ccc(C(=O)Nc2ccc(Cl)c(-c3ccccn3)c2)c(Cl)c1 [vismodegib] + Nc1nc(F)nc2c1ncn2[C@@H]1O[C@H](CO)[C@@H](O)[C@@H]1O [fludarabine] (first compound 1 µM, partner dose 0.2 µM)	94.7	551	62.5	68.3	181	431	1140	97.7	–	–
CN(c1ncccc1CNc1nc(Nc2ccc3c(c2)CC(=O)N3)ncc1C(F)(F)F)S(C)(=O)=O + OCc1c[nH]c2ccccc12 [Indole-3-carbinol] (first compound 0.08 µM, partner dose 0.8 µM)	49.6	133	231	676	210	107	451	193	–	–
CN(c1ncccc1CNc1nc(Nc2ccc3c(c2)CC(=O)N3)ncc1C(F)(F)F)S(C)(=O)=O + CN1CCN(c2ccc3nc(-c4c(N)c5c(F)cccc5[nH]c4=O)[nH]c3c2)CC1 [Dovitinib] (first compound 0.08 µM, partner dose 0.1 µM)	51.9	35.3	40.1	107	73.3	68.2	286	39.7	–	–
CCCCCCCCc1ccc(CCC(N)(CO)CO)cc1 [fingolimod] + Nc1nc(F)nc2c1ncn2[C@@H]1O[C@H](CO)[C@@H](O)[C@@H]1O [fludarabine] (first compound 2 µM, partner dose 0.2 µM)	104	5090	124	231	106	809	668	202	–	–
CN(c1ncccc1CNc1nc(Nc2ccc3c(c2)CC(=O)N3)ncc1C(F)(F)F)S(C)(=O)=O + C=CCNC1=C2C[C@@H](C)C[C@H](OC)[C@H](O)[C@@H](C)/C=C(\C)[C@H](OC(N)=O)[C@@H](OC)/C=C\C=C(/C)C(=O)NC(=CC1=O)C2=O [Tanespimycin] (first compound 0.08 µM, partner dose 0.002 µM)	55.9	93.7	168	122	123	147	22.5	113	–	–
Cn1sc(=O)n(Cc2ccccc2)c1=O + Cn1c(=O)n(-c2ccc(C(C)(C)C#N)cc2)c2c3cc(-c4cnc5ccccc5c4)ccc3ncc21 [NVP-BEZ235] (first compound 0.4 µM, partner dose 0.004 µM)	132	97.4	250	249	87.2	94.1	49.6	83.4	–	–
Cn1cnc2c(F)c(Nc3ccc(Br)cc3Cl)c(C(=O)NOCCO)cc21 [selumetinib] + CS(=O)(=O)CCNCc1ccc(-c2ccc3ncnc(Nc4ccc(OCc5cccc(F)c5)c(Cl)c4)c3c2)o1 [lapatinib] (first compound 0.015 µM, partner dose 0.8 µM)	243	131	141	165	218	199	107	241	–	–
CCCCCCCCc1ccc(CCC(N)(CO)CO)cc1 [fingolimod] + CN1CCN(c2ccc3nc(-c4c(N)c5c(F)cccc5[nH]c4=O)[nH]c3c2)CC1 [Dovitinib] (first compound 2 µM, partner dose 0.1 µM)	68.8	74.7	51.5	39.3	86.4	66.1	20.3	65.4	–	–
CC1(C)CCC(c2ccc(Cl)cc2)=C(CN2CCN(c3ccc(C(=O)NS(=O)(=O)c4ccc(N[C@H](CCN5CCOCC5)CSc5ccccc5)c(S(=O)(=O)C(F)(F)F)c4)cc3)CC2)C1 + O=C(O)c1ccc2c(c1)nc(Nc1cccc(Cl)c1)c1ccncc12 [CX4945] (first compound 0.4 µM, partner dose 0.4 µM)	405	185	245	268	59	140	256	44.8	–	–
CN(c1ncccc1CNc1nc(Nc2ccc3c(c2)CC(=O)N3)ncc1C(F)(F)F)S(C)(=O)=O + Cn1c(Nc2ccc(C(F)(F)F)cc2)nc2cc(Oc3ccnc(-c4ncc(C(F)(F)F)[nH]4)c3)ccc21 [CHIR265] (first compound 0.08 µM, partner dose 0.08 µM)	114	108	189	317	113	271	117	239	–	–
Cn1sc(=O)n(Cc2ccccc2)c1=O + CO[C@H]1C[C@@H]2CC[C@@H](C)[C@@](O)(O2)C(=O)C(=O)N2CCCC[C@H]2C(=O)O[C@H]([C@H](C)C[C@@H]2CC[C@@H](OCCO)[C@H](OC)C2)CC(=O)[C@H](C)/C=C(\C)[C@@H](O)[C@@H](OC)C(=O)[C@H](C)C[C@H](C)/C=C/C=C/C=C/1C [everolimus] (first compound 0.4 µM, partner dose 0.02 µM)	53	83.1	73.4	157	300	–	59.8	351	–	–
CCN(CC)CCNC(=O)c1c(C)[nH]c(/C=C2\C(=O)Nc3ccc(F)cc32)c1C [sunitinib] + COc1ccc(Cl)c(Nc2nc3ccccc3nc2NS(=O)(=O)c2cccc(NC(=O)C(C)(C)N)c2)c1 [XL147] (first compound 0.4 µM, partner dose 0.8 µM)	56	151	94.8	155	84.6	25.3	108	187	–	–
CN(c1ncccc1CNc1nc(Nc2ccc3c(c2)CC(=O)N3)ncc1C(F)(F)F)S(C)(=O)=O + Nc1ccn([C@@H]2O[C@H](CO)[C@@H](O)C2(F)F)c(=O)n1 [gemcitabine] (first compound 0.08 µM, partner dose 0.0004 µM)	119	1560	75.7	60.7	106	222	29.2	148	–	–
Cn1sc(=O)n(Cc2ccccc2)c1=O + O=C(O)c1ccc2c(c1)nc(Nc1cccc(Cl)c1)c1ccncc12 [CX4945] (first compound 0.4 µM, partner dose 0.4 µM)	182	143	165	164	126	36.5	70.1	121	–	–
NC(=O)c1ccc(N(C(N)=O)c2c(F)cccc2F)nc1-c1ccc(F)cc1F + Oc1nc(-c2ccc(C(F)(F)F)cc2)nc2c1CSCC2 [XAV939] (first compound 0.4 µM, partner dose 2 µM)	–	81.9	38.2	82	239	111	207	121	80.6	161
Cn1cnc2c(F)c(Nc3ccc(Br)cc3Cl)c(C(=O)NOCCO)cc21 [selumetinib] + Cc1cc([N+](=O)[O-])ccc1NS(=O)(=O)c1cc(Cl)ccc1Cl [FH535] (first compound 0.015 µM, partner dose 1 µM)	–	128	63.7	103	127	216	166	299	64	39.3
NC(=O)c1ccc(N(C(N)=O)c2c(F)cccc2F)nc1-c1ccc(F)cc1F + CC(=O)O[C@@]12CO[C@@H]1C[C@H](O)[C@@]1(C)C(=O)[C@H](O)C3=C(C)[C@@H](OC(=O)[C@H](O)[C@@H](NC(=O)OC(C)(C)C)c4ccccc4)C[C@@](O)([C@@H](OC(=O)c4ccccc4)[C@H]21)C3(C)C [Docetaxel] (first compound 0.4 µM, partner dose 0.0001 µM)	218	445	842	121	276	–	278	663	–	–
C[C@]1(O)C[C@@H](c2nc(-c3ccc4ccc(-c5ccccc5)nc4c3)c3c(N)nccn32)C1 + C[C@@H](Oc1cc(-c2cnn(C3CCNCC3)c2)cnc1N)c1c(Cl)ccc(F)c1Cl [Crizotinib] (first compound 0.4 µM, partner dose 0.2 µM)	74.1	164	263	76.3	62.4	–	102	85.6	–	–

Given with bars between the fields: part of the list above.
SMILES | cleaved PARP positive nuclei fraction (MZ2-MEL) [%] | cleaved PARP positive nuclei fraction (MeWo) [%] | cleaved PARP positive nuclei fraction (RPMI7951) [%] | cleaved PARP positive nuclei fraction (RVH-421) [%] | cleaved PARP positive nuclei fraction (SkMel28) [%] | cleaved PARP positive nuclei fraction (SkMel2) [%] | cleaved PARP positive nuclei fraction (SkMel30) [%] | cleaved PARP positive nuclei fraction (UACC62) [%] | cleaved PARP positive nuclei fraction (SkMel5) [%] | cleaved PARP positive nuclei fraction (UACC257) [%]
NC(=O)c1ccc(N(C(N)=O)c2c(F)cccc2F)nc1-c1ccc(F)cc1F + CC(=O)O[C@@]12CO[C@@H]1C[C@H](O)[C@@]1(C)C(=O)[C@H](O)C3=C(C)[C@@H](OC(=O)[C@H](O)[C@@H](NC(=O)OC(C)(C)C)c4ccccc4)C[C@@](O)([C@@H](OC(=O)c4ccccc4)[C@H]21)C3(C)C [Docetaxel] (first compound 0.4 µM, partner dose 0.0001 µM) | 218 | 445 | 842 | 121 | 276 | – | 278 | 663 | – | –
C[C@]1(O)C[C@@H](c2nc(-c3ccc4ccc(-c5ccccc5)nc4c3)c3c(N)nccn32)C1 + C[C@@H](Oc1cc(-c2cnn(C3CCNCC3)c2)cnc1N)c1c(Cl)ccc(F)c1Cl [Crizotinib] (first compound 0.4 µM, partner dose 0.2 µM) | 74.1 | 164 | 263 | 76.3 | 62.4 | – | 102 | 85.6 | – | –

Reference: the supplement of paper PMC4604168 (melanoma cell lines)
